Laboratory results: PubChem BioAssay AID652243 (Drosophila RNAi Screening Center, 2013)
In all, the deposit lists about 24,000 reagents; below is an unselected part of those with a known target gene and a result. Over the whole deposit, 246 (1%) got an active call. 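Plates not normalised; calls are printed but the firefly/Renilla ratio behind them is not deposited; fold cut for lowering reported inconsistently.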 Raw values are not corrected between plates. Entries without a mark were called inactive. The numbers tell different reagents against one gene apart. The record does not give: the amount of reagent.

- Screen: 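Knock-downs that decrease or increase androgen receptor reporter signal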 (primary screen)
- Cell system: Drosophila S2R+ cells
- Knock-down reagent: long dsRNA against Drosophila genes
- Time to read-out: 72 h (48 h, then 24 h hormone)
- Treatment: synthetic androgen R1881 at 10 nM for 24 h
- Measurement: 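Firefly light from an androgen-responsive reporter and Renilla control light per well, raw and unnormalised, for each of two replicates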
- Direction: firefly reporter light: higher = more light from androgen-responsive reporter; Renilla control light: higher = more constitutive control signal (cell number, transfection)
- Rule for the call: 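Across duplicate plates, a knock-down whose log firefly/Renilla ratio shifted a set fold down or up from the GFP/LacZ control mean was a hit; the downward cut appears as both 1.5 and 3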
- Calls: active = hit: reporter lowered or raised; inactive = no hit

With knock-down of GM130 (Golgi matrix protein 130 kD) the results were firefly reporter light, replicate 1 = 9.44e5; firefly reporter light, replicate 2 = 8.55e5; Renilla control light, replicate 1 = 1.54e6; Renilla control light, replicate 2 = 1.33e6.
CG17329 #1 showed firefly reporter light, replicate 1 = 1.39e5; firefly reporter light, replicate 2 = 1.22e5; Renilla control light, replicate 1 = 1.72e6; Renilla control light, replicate 2 = 1.56e6.
Against CG17329 #2 the deposit lists firefly reporter light, replicate 1 = 3.60e5; firefly reporter light, replicate 2 = 4.37e5; Renilla control light, replicate 1 = 1.21e6; Renilla control light, replicate 2 = 1.64e6.
For pn (prune) #1, the values are firefly reporter light, replicate 1 = 79847; firefly reporter light, replicate 2 = 81309; Renilla control light, replicate 1 = 5.20e5; Renilla control light, replicate 2 = 4.87e5.
pn (prune) #2 showed firefly reporter light, replicate 1 = 4.35e5; firefly reporter light, replicate 2 = 4.74e5; Renilla control light, replicate 1 = 1.39e6; Renilla control light, replicate 2 = 1.57e6.
e (ebony) #1 showed firefly reporter light, replicate 1 = 71124; firefly reporter light, replicate 2 = 86171; Renilla control light, replicate 1 = 8.44e5; Renilla control light, replicate 2 = 9.36e5.
Against e (ebony) #2 the deposit lists firefly reporter light, replicate 1 = 4.57e5; firefly reporter light, replicate 2 = 4.55e5; Renilla control light, replicate 1 = 3.91e5; Renilla control light, replicate 2 = 3.69e5.
After knock-down of TfIIEbeta (Transcription factor IIEbeta), the screen gave firefly reporter light, replicate 1 = 1.21e5; firefly reporter light, replicate 2 = 1.38e5; Renilla control light, replicate 1 = 1.65e6; Renilla control light, replicate 2 = 1.75e6.
nec (necrotic) showed firefly reporter light, replicate 1 = 2.01e5; firefly reporter light, replicate 2 = 2.62e5; Renilla control light, replicate 1 = 1.88e6; Renilla control light, replicate 2 = 1.85e6.
Silencing of HLH4C (Helix loop helix protein 4C) #1 resulted in: firefly reporter light, replicate 1 = 2.60e5; firefly reporter light, replicate 2 = 2.12e5; Renilla control light, replicate 1 = 2.45e6; Renilla control light, replicate 2 = 2.01e6.
HLH4C (Helix loop helix protein 4C) #2 gave firefly reporter light, replicate 1 = 5.92e5; firefly reporter light, replicate 2 = 5.78e5; Renilla control light, replicate 1 = 2.17e6; Renilla control light, replicate 2 = 2.31e6.
Against HLH4C (Helix loop helix protein 4C) #3, the entry reads firefly reporter light, replicate 1 = 4.32e5; firefly reporter light, replicate 2 = 3.73e5; Renilla control light, replicate 1 = 4.19e5; Renilla control light, replicate 2 = 4.85e5.
bap (bagpipe) #1 showed firefly reporter light, replicate 1 = 2.52e5; firefly reporter light, replicate 2 = 2.87e5; Renilla control light, replicate 1 = 2.91e6; Renilla control light, replicate 2 = 3.19e6.
After knock-down of bap (bagpipe) #2, the screen gave firefly reporter light, replicate 1 = 2.79e5; firefly reporter light, replicate 2 = 3.81e5; Renilla control light, replicate 1 = 5.63e5; Renilla control light, replicate 2 = 5.46e5.

2 entries from above in another layout.
gene,dsRNA no.,"firefly reporter light, replicate 1","firefly reporter light, replicate 2","Renilla control light, replicate 1","Renilla control light, replicate 2"
bap (bagpipe),1,2.52e5,2.87e5,2.91e6,3.19e6
bap (bagpipe),2,2.79e5,3.81e5,5.63e5,5.46e5
